The target of this experiment is human Kv1.3 protein with C-terminal FLAG and 10xHis tags (human) (UniProt P22001). As to the kind of experiment: Kv1.3 ELISA. (ELISA stands for enzyme-linked immunosorbent assay.)

This note sets out measurements from US20190144538A1 (TETRAGENETICS, published 2019).

No constants are given. Whether binding was seen depends on the method and setting. Some binding calls cover weakened binding; strength is not graded here.

B1: 1A3 (Fc fusion, not shown: small tags and cut ends; a dimerising Fc or GST)
scFv (part 1 of 2): LDIQMTQSPSSVTASVGEKVTINCKSSQSVVSASNQKSYLNWYQQRPGQSPRLLIYYASTQELGIPDRFSGSGSTTDFTLTISSVQPEDAAVYYCQQAYSAPYNFGSGTRLEIK
scFv (part 2 of 2): QVQLQESGGGLVQPGGSLRLSCAASGFTFSINGMSWVRQAPGKEVEWVSSINSGGEITNYRDSVKGRFTISRDNVKNTLYLQMNSLKPEDTAFYHCVTGIVAYDYWGQGTQVTVSS
With B1, the binding entry is “binds”.
